Laboratory results published in the supplement of paper PMC10849652.
This is one part of the list.

The chains behind the UniProt entries cited, without tags or fusion partners. Where a name states a change or a piece, a line headed by the entry shows the natural chain unless it says otherwise.
UniProt Q96M27: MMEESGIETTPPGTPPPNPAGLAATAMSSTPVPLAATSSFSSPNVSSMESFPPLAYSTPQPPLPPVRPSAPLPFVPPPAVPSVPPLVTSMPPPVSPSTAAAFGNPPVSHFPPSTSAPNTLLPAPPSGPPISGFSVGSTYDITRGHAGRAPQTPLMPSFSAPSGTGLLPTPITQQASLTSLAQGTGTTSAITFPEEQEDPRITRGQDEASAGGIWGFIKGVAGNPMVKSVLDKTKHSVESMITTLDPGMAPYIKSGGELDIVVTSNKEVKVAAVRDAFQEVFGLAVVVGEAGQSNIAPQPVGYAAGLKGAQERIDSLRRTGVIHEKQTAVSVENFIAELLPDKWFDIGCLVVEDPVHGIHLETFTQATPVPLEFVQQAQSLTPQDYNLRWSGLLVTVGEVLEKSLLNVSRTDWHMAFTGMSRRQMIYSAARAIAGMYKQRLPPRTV
UniProt P55345: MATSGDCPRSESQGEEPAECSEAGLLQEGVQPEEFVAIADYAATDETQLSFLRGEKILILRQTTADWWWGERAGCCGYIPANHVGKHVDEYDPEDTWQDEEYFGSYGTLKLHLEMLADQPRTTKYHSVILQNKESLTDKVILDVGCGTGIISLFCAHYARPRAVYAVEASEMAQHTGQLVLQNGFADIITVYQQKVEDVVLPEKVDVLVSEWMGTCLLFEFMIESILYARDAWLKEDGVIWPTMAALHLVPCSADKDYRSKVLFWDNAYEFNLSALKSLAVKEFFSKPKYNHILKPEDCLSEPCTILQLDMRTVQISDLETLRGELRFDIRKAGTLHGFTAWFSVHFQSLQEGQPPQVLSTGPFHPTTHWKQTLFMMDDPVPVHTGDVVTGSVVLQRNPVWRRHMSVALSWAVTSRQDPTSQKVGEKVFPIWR
UniProt Q9Y6M0: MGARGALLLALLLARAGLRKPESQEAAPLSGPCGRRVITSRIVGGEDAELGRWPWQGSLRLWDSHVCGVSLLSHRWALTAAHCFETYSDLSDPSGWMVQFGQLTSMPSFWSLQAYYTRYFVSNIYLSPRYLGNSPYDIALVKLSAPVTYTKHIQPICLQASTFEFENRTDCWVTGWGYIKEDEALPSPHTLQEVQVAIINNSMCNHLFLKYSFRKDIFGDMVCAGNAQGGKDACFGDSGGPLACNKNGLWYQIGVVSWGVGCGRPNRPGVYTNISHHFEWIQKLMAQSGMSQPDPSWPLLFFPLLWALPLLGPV
UniProt Q8TAE6: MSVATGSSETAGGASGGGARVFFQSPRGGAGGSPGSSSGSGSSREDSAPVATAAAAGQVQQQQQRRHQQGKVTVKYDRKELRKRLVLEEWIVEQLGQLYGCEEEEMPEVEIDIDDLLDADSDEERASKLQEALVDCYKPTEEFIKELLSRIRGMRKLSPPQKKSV
UniProt Q9ULR3: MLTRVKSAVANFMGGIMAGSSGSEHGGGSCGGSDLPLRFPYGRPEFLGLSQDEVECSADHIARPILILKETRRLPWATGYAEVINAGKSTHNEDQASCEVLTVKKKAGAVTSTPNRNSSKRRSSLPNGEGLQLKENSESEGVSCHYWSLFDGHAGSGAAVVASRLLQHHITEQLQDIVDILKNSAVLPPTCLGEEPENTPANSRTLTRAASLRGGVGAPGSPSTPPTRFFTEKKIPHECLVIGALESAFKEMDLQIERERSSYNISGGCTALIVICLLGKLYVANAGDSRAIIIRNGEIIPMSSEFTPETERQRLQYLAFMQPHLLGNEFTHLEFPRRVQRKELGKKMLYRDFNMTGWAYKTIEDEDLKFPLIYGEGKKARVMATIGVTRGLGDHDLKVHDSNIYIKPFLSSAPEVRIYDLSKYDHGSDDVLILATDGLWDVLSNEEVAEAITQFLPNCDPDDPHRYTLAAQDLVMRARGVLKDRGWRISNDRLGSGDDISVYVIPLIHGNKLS
UniProt P60510: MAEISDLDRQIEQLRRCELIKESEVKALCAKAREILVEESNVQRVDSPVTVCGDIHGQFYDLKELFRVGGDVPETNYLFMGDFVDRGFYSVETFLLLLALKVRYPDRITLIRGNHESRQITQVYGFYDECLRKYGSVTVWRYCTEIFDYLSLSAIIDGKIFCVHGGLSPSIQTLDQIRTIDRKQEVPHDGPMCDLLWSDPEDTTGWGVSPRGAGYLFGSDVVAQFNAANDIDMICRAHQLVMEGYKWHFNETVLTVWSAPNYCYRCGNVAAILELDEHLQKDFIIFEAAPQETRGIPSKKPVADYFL
UniProt P07225: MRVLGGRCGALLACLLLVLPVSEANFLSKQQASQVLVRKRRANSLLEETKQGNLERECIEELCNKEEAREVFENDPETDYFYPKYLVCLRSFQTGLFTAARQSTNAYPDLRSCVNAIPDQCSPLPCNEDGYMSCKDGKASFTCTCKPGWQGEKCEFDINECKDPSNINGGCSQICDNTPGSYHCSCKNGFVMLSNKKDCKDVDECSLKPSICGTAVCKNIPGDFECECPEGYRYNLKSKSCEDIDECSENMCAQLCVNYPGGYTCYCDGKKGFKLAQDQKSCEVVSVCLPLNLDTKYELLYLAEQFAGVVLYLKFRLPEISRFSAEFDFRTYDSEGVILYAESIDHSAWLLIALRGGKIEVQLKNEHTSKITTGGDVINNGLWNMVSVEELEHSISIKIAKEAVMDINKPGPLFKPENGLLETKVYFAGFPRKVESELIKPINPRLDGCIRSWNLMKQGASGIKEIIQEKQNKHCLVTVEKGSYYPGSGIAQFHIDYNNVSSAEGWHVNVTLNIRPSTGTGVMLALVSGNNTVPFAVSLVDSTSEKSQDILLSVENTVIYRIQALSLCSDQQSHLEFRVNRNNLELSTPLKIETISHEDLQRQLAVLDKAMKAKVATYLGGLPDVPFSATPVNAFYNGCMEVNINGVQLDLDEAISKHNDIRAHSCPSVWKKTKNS
UniProt O75170: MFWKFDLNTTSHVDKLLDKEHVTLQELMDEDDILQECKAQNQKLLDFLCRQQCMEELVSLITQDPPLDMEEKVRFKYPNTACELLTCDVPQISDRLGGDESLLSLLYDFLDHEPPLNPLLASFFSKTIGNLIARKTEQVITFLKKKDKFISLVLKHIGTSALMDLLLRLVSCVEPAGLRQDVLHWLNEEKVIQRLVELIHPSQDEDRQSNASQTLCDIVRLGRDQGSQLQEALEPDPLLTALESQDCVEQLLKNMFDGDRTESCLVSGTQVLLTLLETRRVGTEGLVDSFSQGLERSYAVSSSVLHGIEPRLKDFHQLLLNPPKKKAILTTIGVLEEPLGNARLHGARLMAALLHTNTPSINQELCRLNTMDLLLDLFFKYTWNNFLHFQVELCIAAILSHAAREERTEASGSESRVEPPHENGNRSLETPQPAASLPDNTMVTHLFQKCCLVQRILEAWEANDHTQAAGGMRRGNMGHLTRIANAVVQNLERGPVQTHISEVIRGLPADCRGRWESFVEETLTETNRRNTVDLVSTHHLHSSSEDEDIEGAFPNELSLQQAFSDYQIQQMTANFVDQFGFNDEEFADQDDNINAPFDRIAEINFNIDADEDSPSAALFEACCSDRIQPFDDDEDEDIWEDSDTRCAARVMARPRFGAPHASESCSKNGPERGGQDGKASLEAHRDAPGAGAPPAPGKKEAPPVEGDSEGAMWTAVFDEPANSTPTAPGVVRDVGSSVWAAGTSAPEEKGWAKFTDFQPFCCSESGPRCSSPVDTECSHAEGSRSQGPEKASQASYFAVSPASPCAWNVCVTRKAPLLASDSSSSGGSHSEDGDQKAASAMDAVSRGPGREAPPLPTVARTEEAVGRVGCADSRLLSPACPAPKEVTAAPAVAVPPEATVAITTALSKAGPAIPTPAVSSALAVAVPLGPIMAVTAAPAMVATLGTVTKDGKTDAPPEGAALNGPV
UniProt P63098, whole entry, looked up: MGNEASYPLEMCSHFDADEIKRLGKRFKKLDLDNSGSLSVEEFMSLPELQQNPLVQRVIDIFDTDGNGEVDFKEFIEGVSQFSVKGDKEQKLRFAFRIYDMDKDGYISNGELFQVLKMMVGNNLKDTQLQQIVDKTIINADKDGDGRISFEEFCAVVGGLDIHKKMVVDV
UniProt P36873, whole entry, looked up: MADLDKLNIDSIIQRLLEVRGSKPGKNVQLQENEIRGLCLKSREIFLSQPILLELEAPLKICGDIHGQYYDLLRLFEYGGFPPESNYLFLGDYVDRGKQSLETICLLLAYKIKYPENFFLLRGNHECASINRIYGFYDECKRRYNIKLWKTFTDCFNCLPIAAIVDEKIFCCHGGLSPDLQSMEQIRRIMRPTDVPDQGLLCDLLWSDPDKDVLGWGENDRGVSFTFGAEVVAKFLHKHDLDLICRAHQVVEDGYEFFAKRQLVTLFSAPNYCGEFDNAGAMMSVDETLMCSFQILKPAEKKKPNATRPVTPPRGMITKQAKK
UniProt Q9H875: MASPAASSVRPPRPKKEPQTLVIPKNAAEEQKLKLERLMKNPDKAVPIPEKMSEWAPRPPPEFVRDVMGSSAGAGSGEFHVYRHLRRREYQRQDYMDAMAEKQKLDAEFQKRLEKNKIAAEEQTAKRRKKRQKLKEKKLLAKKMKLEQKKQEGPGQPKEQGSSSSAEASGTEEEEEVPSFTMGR
UniProt Q6IN85: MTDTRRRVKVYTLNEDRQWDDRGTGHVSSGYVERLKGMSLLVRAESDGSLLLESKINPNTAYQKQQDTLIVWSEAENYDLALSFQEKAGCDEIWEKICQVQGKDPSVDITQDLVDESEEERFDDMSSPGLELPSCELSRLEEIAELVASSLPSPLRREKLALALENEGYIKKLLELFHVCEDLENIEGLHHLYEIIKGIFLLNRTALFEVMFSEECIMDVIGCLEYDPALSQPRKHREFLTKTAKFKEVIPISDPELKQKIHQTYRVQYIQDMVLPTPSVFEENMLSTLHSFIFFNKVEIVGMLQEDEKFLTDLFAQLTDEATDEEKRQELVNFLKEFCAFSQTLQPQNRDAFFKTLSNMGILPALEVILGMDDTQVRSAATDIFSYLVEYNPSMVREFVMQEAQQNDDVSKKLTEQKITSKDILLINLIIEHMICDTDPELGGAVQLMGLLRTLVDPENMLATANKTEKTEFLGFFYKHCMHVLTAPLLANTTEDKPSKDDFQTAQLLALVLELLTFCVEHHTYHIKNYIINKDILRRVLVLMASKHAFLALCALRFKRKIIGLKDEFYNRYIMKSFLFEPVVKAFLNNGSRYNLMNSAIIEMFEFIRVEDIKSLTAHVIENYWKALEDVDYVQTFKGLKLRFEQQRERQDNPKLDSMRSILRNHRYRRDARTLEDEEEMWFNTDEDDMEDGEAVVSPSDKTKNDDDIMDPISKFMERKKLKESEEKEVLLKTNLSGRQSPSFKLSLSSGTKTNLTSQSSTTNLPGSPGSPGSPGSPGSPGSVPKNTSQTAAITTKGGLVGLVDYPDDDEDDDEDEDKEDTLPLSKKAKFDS
UniProt P32119: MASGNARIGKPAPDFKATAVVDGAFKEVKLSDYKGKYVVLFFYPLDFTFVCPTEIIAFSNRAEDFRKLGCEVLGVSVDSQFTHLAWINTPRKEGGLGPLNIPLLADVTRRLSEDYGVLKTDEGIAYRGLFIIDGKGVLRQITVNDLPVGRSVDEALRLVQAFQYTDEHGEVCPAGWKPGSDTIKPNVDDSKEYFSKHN
UniProt P60891: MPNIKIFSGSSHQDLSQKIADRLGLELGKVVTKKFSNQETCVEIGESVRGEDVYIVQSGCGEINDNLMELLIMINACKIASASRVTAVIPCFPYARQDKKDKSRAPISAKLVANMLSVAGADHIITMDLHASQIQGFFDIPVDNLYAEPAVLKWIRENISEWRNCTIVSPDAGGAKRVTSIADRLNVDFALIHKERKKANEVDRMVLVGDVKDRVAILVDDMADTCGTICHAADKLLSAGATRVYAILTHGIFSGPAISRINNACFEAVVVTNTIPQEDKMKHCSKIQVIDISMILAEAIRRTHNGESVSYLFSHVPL
UniProt Q66LE6: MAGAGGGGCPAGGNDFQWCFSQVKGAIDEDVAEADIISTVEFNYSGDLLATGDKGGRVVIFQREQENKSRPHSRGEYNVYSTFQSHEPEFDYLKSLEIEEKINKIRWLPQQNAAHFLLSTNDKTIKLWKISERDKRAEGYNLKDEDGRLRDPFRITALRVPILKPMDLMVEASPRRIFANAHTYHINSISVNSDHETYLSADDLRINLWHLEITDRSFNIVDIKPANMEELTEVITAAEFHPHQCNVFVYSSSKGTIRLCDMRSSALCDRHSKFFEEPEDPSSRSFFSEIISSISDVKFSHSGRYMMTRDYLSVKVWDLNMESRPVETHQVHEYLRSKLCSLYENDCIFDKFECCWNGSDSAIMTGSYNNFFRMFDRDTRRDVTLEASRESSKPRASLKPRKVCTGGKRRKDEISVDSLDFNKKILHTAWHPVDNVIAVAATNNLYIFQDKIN

What was measured:
Test in all cases: log2 fold change, soluble protein after heating vs DMSO (PISA); higher = thermal stabilisation; K562 cells, 10 uM, 30 min; active = over 0.2 and 3.5 SD of the protein, either way, in both replicates (recomputed)
[1] = compound: CS(=O)(=O)c1ccc(-c2cnc(N)c(C(=O)Nc3ccccc3)n2)cc1
Method in brief: (§1)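 Soluble protein was quantified by TMTpro 16plex LC-MS/MS after channel sums were equalised. It was obtained as the supernatant after 21,000xg for 90 min from pooled aliquots of K562 cells (2×10^6 cells/mL, 10 μM compound, 30 min) heated for 3 min across 48°C-58°C and extracted in PBS with 0.5% NP-40 at 4°C. Thermal stability values are relative to control samples and come from duplicates. They are given as log2 fold changes.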

crizotinib = compound: C[C@@H](Oc1cc(-c2cnn(C3CCNCC3)c2)cnc1N)c1c(Cl)ccc(F)c1Cl [crizotinib]
Method in brief: as §1

[2] = compound: C[C@@H]1COCCN1C2=NC(=NC(=C2)C3(CC3)S(=O)(=O)C)C4=C5C=CNC5=CC=C4
Method in brief: as §1

[3] = compound: C[C@H](C1=CC=C(C=C1)C(=O)NC2=C3C=CNC3=NC=C2)N
Method in brief: as §1

duvelisib = compound: C[C@H](Nc1ncnc2nc[nH]c12)c1cc2cccc(Cl)c2c(=O)n1-c1ccccc1 [duvelisib]
Method in brief: as §1

gandotinib = compound: Cc1cc(Nc2cc(CN3CCOCC3)c3nc(C)c(Cc4ccc(Cl)cc4F)n3n2)n[nH]1 [gandotinib]
Method in brief: as §1

tozasertib = compound: Cc1cc(Nc2cc(N3CCN(C)CC3)nc(Sc3ccc(NC(=O)C4CC4)cc3)n2)n[nH]1 [tozasertib]
Method in brief: as §1

[4] = compound: Cc1cc(SCc2sc(-c3ccc(C(F)(F)F)cc3)nc2C)ccc1OCC(=O)O
Method in brief: as §1

doramapimod = compound: Cc1ccc(-n2nc(C(C)(C)C)cc2NC(=O)Nc2ccc(OCCN3CCOCC3)c3ccccc23)cc1 [doramapimod]
Method in brief: as §1

ispinesib = compound: Cc1ccc(C(=O)N(CCCN)[C@@H](c2nc3cc(Cl)ccc3c(=O)n2Cc2ccccc2)C(C)C)cc1 [ispinesib]
Method in brief: as §1

bafetinib = compound: Cc1ccc(NC(=O)c2ccc(CN3CC[C@H](N(C)C)C3)c(C(F)(F)F)c2)cc1Nc1nccc(-c2cncnc2)n1 [bafetinib]
Method in brief: as §1

[5] = compound: Cc1cccc(CC(=O)N2CCc3c2ccc(-c2cn(C)c4ncnc(N)c24)c3F)n1
Method in brief: as §1

nilotinib = compound: Cc1cn(-c2cc(NC(=O)c3ccc(C)c(Nc4nccc(-c5cccnc5)n4)c3)cc(C(F)(F)F)c2)cn1 [nilotinib]
Method in brief: as §1

[6] = compound: Cc1nc(Nc2n[nH]c3c2CN(C(=O)N[C@H](CN(C)C)c2ccccc2)C3(C)C)c2sccc2n1
Method in brief: as §1

dasatinib = compound: Cc1nc(Nc2ncc(C(=O)Nc3c(C)cccc3Cl)s2)cc(N2CCN(CCO)CC2)n1 [dasatinib]
Method in brief: as §1

[7] = compound: Cc1ncc(-c2ccnc(Nc3ccc(S(C)(=O)=O)cc3)n2)n1C(C)C
Method in brief: as §1

[8] = compound: Cn1cc(-c2ccc3c(c2)CCN3C(=O)Cc2cccc(C(F)(F)F)c2)c2c(N)ncnc21
Method in brief: as §1

[9] = compound: Cn1cc(-c2ccc3nnc(C(F)(F)c4ccc5ncccc5c4)n3n2)cn1
Method in brief: as §1

tipifarnib = compound: Cn1cncc1[C@@](N)(c1ccc(Cl)cc1)c1ccc2c(c1)c(-c1cccc(Cl)c1)cc(=O)n2C [tipifarnib]
Method in brief: as §1

mubritinib = compound: FC(F)(F)c1ccc(/C=C/c2nc(COc3ccc(CCCCn4ccnn4)cc3)co2)cc1 [mubritinib]
Method in brief: as §1

Measured: log2 fold change

PRRC1 (UniProt Q96M27)
inactive: [1] 0.01 | crizotinib 0.07 | [2] 0.024 | [3] -0.034 | duvelisib 0.011 | gandotinib 0.032 | tozasertib -0.031 | [4] -0.081 | doramapimod 0 | ispinesib -0.015 | bafetinib -0.08 | [5] -0.039 | nilotinib -0.002 | [6] -0.021 | dasatinib 0.038 | [7] -0.026 | [8] 0 | [9] 0.013 | tipifarnib 0.013 | mubritinib 0.057

PRMT2 (UniProt P55345)
inactive: [1] -0.051

PRSS21 (UniProt Q9Y6M0)
inactive: [1] 0.003 | crizotinib 0.016 | [2] -0.012 | [3] 0.009 | duvelisib -0.028 | gandotinib 0.052 | tozasertib 0.064 | [4] 0.049 | doramapimod 0.082 | ispinesib 0.033 | bafetinib 0.022 | [5] 0.029 | nilotinib 0.029 | [6] 0.06 | dasatinib -0.066 | [7] 0 | [8] 0.042 | [9] -0.016 | tipifarnib 0.064 | mubritinib -0.042

PRPF19 (UniProt Q9UMS4)
inactive: [1] -0.028 | crizotinib 0.165 | [2] -0.004 | [3] -0.015 | duvelisib 0.017 | gandotinib -0.002 | tozasertib -0.062 | [4] -0.041 | doramapimod -0.014 | ispinesib 0.076 | bafetinib -0.062 | [5] -0.049 | nilotinib -0.004 | [6] 0.102 | dasatinib 0.086 | [7] 0.082 | [8] -0.005 | [9] -0.001 | tipifarnib 0.008 | mubritinib 0.019

PPP1R14C (UniProt Q8TAE6)
inactive: [1] 0.036 | crizotinib 0.022 | [2] -0.128 | [3] -0.059 | duvelisib 0.153 | gandotinib -0.065 | tozasertib 0.06 | [4] -0.173 | doramapimod 0.005 | ispinesib 0.244 | bafetinib 0.022 | [5] -0.153 | nilotinib 0.028 | [6] 0.077 | dasatinib 0.174 | [7] -0.047 | [8] -0.071 | [9] -0.246 | tipifarnib -0.008 | mubritinib 0

PPM1H (UniProt Q9ULR3)
inactive: [1] 0.007 | crizotinib 0.037 | [2] 0.124 | [3] -0.072 | duvelisib 0.046 | gandotinib -0.03 | tozasertib -0.021 | [4] -0.057 | doramapimod 0.017 | ispinesib 0.041 | bafetinib -0.024 | [5] -0.036 | nilotinib -0.017 | [6] -0.011 | dasatinib 0.024 | [7] 0.015 | [8] 0.042 | [9] 0.028 | tipifarnib -0.026 | mubritinib 0.03

PPP4C (UniProt P60510)
inactive: [1] 0.014 | crizotinib -0.012 | [2] 0.079 | [3] -0.046 | duvelisib 0.057 | gandotinib -0.074 | tozasertib 0.024 | [4] -0.05 | doramapimod 0.007 | ispinesib 0.018 | bafetinib -0.068 | [5] 0.056 | nilotinib 0.002 | [6] 0.02 | dasatinib 0.06 | [7] -0.029 | [8] -0.004 | [9] 0.013 | tipifarnib 0.075 | mubritinib 0.112

Copied from the listing (2 entries):
PPP1R14C (UniProt Q8TAE6)
inactive: [1] 0.036 | crizotinib 0.022 | [2] -0.128 | [3] -0.059 | duvelisib 0.153 | gandotinib -0.065 | tozasertib 0.06 | [4] -0.173 | doramapimod 0.005 | ispinesib 0.244 | bafetinib 0.022 | [5] -0.153 | nilotinib 0.028 | [6] 0.077 | dasatinib 0.174 | [7] -0.047 | [8] -0.071 | [9] -0.246 | tipifarnib -0.008 | mubritinib 0

PPM1H (UniProt Q9ULR3)
inactive: [1] 0.007 | crizotinib 0.037 | [2] 0.124 | [3] -0.072 | duvelisib 0.046 | gandotinib -0.03 | tozasertib -0.021 | [4] -0.057 | doramapimod 0.017 | ispinesib 0.041 | bafetinib -0.024 | [5] -0.036 | nilotinib -0.017 | [6] -0.011 | dasatinib 0.024 | [7] 0.015 | [8] 0.042 | [9] 0.028 | tipifarnib -0.026 | mubritinib 0.03

(continued)

PROS1 (UniProt P07225)
inactive: [1] -0.029 | crizotinib 0.005 | [2] -0.089 | [3] 0 | duvelisib -0.045 | gandotinib 0.057 | tozasertib 0.015 | [4] -0.072 | doramapimod 0.015 | ispinesib 0.01 | bafetinib -0.173 | [5] -0.038 | nilotinib 0.047 | [6] -0.024 | dasatinib 0.044 | [7] 0.032 | [8] 0.006 | [9] -0.004 | tipifarnib 0.062 | mubritinib -0.088

PPP6R2 isoform 5 (UniProt O75170)
inactive: [1] -0.02 | crizotinib 0.019 | [2] 0.057 | [3] -0.014 | duvelisib 0.016 | gandotinib -0.033 | tozasertib 0.014 | [4] 0.033 | doramapimod -0.012 | ispinesib 0.086 | bafetinib 0.047 | [5] -0.028 | nilotinib 0.033 | [6] -0.012 | dasatinib -0.044 | [7] -0.018 | [8] 0 | [9] 0.013 | tipifarnib -0.013 | mubritinib 0.026

PPP3R1 (UniProt P63098)
inactive: [1] -0.018 | crizotinib -0.024 | [2] 0.019 | [3] -0.053 | duvelisib 0.027 | gandotinib 0.02 | tozasertib 0.053 | [4] 0.003 | doramapimod -0.034 | ispinesib -0.009 | bafetinib -0.086 | [5] -0.014 | nilotinib -0.058 | [6] 0.07 | dasatinib 0.01 | [7] -0.032 | [8] 0.044 | [9] -0.007 | tipifarnib 0.049 | mubritinib -0.009

PPP1CC isoform 2 (UniProt P36873)
inactive: [1] -0.023 | crizotinib 0.053 | [2] 0.044 | [3] -0.094 | duvelisib 0.021 | gandotinib 0.024 | tozasertib -0.01 | [4] 0.008 | doramapimod -0.047 | ispinesib 0.061 | bafetinib -0.055 | [5] 0.001 | nilotinib -0.021 | [6] 0.066 | dasatinib 0.056 | [7] -0.006 | [8] 0.006 | [9] -0.026 | tipifarnib 0.009 | mubritinib -0.009

PRKRIP1 (UniProt Q9H875)
inactive: [1] -0.135 | crizotinib 0.058 | [2] -0.002 | [3] 0.009 | duvelisib 0.028 | gandotinib 0.204 | tozasertib -0.048 | [4] -0.048 | doramapimod 0.04 | ispinesib 0.018 | bafetinib 0.074 | [5] -0.142 | nilotinib 0.008 | [6] 0.133 | dasatinib 0.121 | [7] 0.179 | [8] -0.009 | [9] 0.021 | tipifarnib 0.037 | mubritinib 0.004

PPP4R3A (UniProt Q6IN85)
inactive: [1] 0.038 | crizotinib 0.021 | [2] -0.011 | [3] -0.048 | duvelisib 0.017 | gandotinib -0.003 | tozasertib 0.027 | [4] -0.022 | doramapimod -0.005 | ispinesib -0.008 | bafetinib -0.106 | [5] 0.01 | nilotinib -0.031 | [6] -0.013 | dasatinib 0.002 | [7] -0.01 | [8] 0.017 | [9] 0.057 | tipifarnib 0.082 | mubritinib 0.114

PRDX2 (UniProt P32119)
inactive: [1] 0.051 | crizotinib -0.01 | [2] 0.035 | [3] -0.021 | duvelisib 0.048 | gandotinib -0.044 | tozasertib -0.012 | [4] -0.015 | doramapimod -0.051 | ispinesib 0.016 | bafetinib -0.051 | [5] 0.009 | nilotinib -0.016 | [6] -0.003 | dasatinib 0.003 | [7] -0.018 | [8] 0.031 | [9] 0.039 | tipifarnib -0.018 | mubritinib 0.058

PRPS1 (UniProt P60891)
inactive: [1] 0.003 | crizotinib 0.016 | [2] 0.034 | [3] 0.014 | duvelisib 0.001 | gandotinib -0.022 | tozasertib 0.014 | [4] 0.007 | doramapimod 0.044 | ispinesib 0.028 | bafetinib 0.035 | [5] -0.024 | nilotinib -0.025 | [6] 0.03 | dasatinib 0.026 | [7] 0.031 | [8] -0.033 | [9] 0.023 | tipifarnib -0.051 | mubritinib 0.03

PPP2R2D (UniProt Q66LE6)
inactive: [1] -0.055 | crizotinib -0.056 | [2] 0.069 | [3] 0.012 | duvelisib 0.072 | gandotinib 0.076 | tozasertib -0.063 | [4] -0.018 | doramapimod 0.053 | ispinesib 0.065 | bafetinib -0.035 | [5] -0.115 | nilotinib 0.039 | [6] -0.084 | dasatinib -0.005 | [7] -0.084 | [8] -0.025 | [9] -0.023 | tipifarnib 0.017 | mubritinib 0.049

PRRC2B (UniProt Q5JSZ5)
inactive: [1] -0.024 | crizotinib -0.013 | [2] -0.057 | [3] 0.074 | duvelisib 0.059 | gandotinib -0.024 | tozasertib -0.05 | [4] -0.049 | doramapimod 0.017 | ispinesib -0.053 | bafetinib -0.014 | [5] -0.063 | nilotinib -0.016 | [6] -0.034 | dasatinib -0.005 | [7] 0.049 | [8] -0.041 | [9] -0.01 | tipifarnib 0.019 | mubritinib -0.052
